Experiment [1] addresses N-myc downstream regulated gene 1 (NDRG1), endogenous in HCC cells (human (endogenous in Huh7, HepG2, Hep3B)) (UniProt Q92597). Nature of the experiment: co-IP; 500 μg cell lysate, 2 μg anti-NDRG1 antibody, protein A/G PLUS-agarose, 4°C; endogenous proteins in Huh7, HepG2, Hep3B; cells under normoxia or hypoxia (0.5% O2).
Experiment [2] shares this target. Kind of experiment: co-IP; tumor lysates of Hep3B and HepG2 xenografts (control shRNA or NDRG1 shRNA) from nude mice; endogenous proteins.

Amino acid sequences for entries named in this document (tags omitted).
UniProt Q92597: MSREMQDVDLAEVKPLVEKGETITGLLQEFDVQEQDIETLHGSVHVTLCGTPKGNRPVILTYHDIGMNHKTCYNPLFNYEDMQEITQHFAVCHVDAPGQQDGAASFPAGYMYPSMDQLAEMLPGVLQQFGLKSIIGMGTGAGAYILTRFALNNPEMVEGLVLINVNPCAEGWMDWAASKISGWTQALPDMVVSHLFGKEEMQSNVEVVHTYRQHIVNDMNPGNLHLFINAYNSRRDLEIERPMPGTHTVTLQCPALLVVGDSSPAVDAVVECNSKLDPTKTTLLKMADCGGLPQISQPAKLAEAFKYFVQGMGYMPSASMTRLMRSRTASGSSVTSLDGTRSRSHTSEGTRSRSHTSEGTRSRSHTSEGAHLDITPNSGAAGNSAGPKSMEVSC
UniProt P49841: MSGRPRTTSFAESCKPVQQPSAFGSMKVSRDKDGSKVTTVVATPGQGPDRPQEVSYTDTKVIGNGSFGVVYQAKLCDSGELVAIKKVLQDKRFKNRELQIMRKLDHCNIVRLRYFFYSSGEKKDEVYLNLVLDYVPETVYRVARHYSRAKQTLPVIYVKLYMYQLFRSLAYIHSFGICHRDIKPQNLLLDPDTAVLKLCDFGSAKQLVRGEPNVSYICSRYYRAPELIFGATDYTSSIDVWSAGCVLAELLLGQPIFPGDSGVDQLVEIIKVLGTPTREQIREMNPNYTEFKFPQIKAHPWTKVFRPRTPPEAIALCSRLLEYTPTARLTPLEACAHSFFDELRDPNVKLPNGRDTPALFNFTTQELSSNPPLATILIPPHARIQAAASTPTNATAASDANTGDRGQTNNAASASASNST

No constants are given. Whether binding was seen depends on the method and setting. Binding seen in cells or lysates may run through a third protein. Some binding calls cover weakened binding; strength is not graded here.

“glycogen synthase kinase 3β (GSK-3β), endogenous in HCC cells (from UniProt P49841 1-420) (enzyme)”: the binding result in experiment [1] and in experiment [2] was “binds” in each case.

These data come from PMC4745767.
